One assay addresses T1, MCM2 (mouse, UniProt P97310 2-904).
T1 construct: Detected by western blot (sc-9839) in the immunoprecipitates from mouse testes extracts; also called member of the MCM2-7 complex
The assay can be described thus: co-immunoprecipitation from mouse testes extracts, western blot (FIG. 18A). The text has this:
(§1) FIG. 18A represents immunoprecipitations of MCM8 (IP anti-MCM8; lane C) and MCM9 (IP anti-MCM9; lane D) from testes extracts blotted against MCM9 (panel 1), MCM8 (panel 2), MCM2 (panel 3) and MCM5 (panel 4). To normalize the loading, IgGs of each IP are also shown (panel 5).
On the technique in general: A western blot detects proteins with antibodies after separation by electrophoresis.

Sequences of proteins named here, by UniProt entry; tags and fusion partners are left off. Residues count along the entry.
UniProt P97310, 2-904 limits assumed: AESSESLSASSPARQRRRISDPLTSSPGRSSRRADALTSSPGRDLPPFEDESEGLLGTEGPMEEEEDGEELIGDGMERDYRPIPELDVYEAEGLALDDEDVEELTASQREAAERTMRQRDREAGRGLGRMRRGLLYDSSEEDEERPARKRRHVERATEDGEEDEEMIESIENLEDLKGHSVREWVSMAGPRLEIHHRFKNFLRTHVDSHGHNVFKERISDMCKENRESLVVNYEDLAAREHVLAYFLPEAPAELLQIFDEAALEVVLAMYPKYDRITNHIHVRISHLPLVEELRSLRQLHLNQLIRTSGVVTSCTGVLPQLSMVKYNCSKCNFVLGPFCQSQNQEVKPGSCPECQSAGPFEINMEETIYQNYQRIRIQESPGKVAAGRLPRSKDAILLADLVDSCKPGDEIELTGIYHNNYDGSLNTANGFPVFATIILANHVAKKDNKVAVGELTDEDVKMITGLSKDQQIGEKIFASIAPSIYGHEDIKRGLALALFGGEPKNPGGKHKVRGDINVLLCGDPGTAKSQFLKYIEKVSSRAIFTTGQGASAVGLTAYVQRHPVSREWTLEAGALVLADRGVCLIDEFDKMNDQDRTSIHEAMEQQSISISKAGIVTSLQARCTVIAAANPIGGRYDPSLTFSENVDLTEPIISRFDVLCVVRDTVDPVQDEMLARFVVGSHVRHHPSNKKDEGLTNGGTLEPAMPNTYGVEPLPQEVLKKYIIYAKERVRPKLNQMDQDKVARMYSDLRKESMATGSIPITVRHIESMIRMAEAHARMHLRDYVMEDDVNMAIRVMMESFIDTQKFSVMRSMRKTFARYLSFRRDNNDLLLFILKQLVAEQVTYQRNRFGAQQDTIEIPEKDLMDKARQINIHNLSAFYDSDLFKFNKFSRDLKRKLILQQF

Another assay addresses T2, MCM5 (mouse, UniProt P49718 2-734).
T2 construct: Detected by western blot (sc-22780) in the immunoprecipitates from mouse testes extracts; also called member of the MCM2-7 complex
T2 sequence (looked up): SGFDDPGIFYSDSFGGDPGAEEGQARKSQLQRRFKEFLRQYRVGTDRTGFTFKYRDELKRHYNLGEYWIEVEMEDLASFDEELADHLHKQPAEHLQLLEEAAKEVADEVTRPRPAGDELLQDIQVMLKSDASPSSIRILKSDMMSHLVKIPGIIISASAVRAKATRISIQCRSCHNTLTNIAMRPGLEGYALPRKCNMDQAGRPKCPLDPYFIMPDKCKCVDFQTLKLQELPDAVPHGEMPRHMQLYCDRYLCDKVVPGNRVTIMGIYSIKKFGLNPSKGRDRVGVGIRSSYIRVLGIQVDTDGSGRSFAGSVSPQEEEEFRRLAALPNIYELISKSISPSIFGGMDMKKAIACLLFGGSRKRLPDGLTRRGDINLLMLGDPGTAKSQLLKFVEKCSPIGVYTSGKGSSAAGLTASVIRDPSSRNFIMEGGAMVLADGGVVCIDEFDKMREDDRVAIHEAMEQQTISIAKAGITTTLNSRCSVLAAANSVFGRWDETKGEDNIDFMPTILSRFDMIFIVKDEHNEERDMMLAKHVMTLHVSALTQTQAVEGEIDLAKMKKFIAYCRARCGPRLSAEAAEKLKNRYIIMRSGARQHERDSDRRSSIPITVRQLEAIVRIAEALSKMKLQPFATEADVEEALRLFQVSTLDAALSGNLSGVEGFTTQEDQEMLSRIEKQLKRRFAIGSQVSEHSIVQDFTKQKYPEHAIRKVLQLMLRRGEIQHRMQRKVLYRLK
The assay is described as above.
Source text: as §1

B1: mouse MCM9 protein (other)
chain: MDQRTTRNGKYCDVEPVSRSNPAPCLRDPPLRRLVRPKPRLQLPESRLSPCSRLPLADSSVRPGARPPASAPGRSPSGRKVEAVRGSGSAGSSSPSEAEREQREEACAPPRKAAPSSGRAHAPPPPTPRGSGWGDHGRSAVPATKTVRVEPYPPFKMNSEQVTLVGQVFESYVSEYHKNDILLILKERDEDAHYPVVVNAMSLFETNMEIGDYFTVFPNEVLTVFDSALRRSALAILQSLPETEGLSMKQNLHARISGLPVCPELVREHIPKTKDVGHFLSVTGTVIRTSLVKVLEFERDYMCNKCKHVFMVEADFEQYYTFSRPSSCPSLASCDSSKFSCLSDLSSSPARCRDYQEIKIQEQVQRLSVGSIPRSMKVILEDDLVDSCKSGDDLTIYGVVMQRWKPFQRDVRCEVEIVLKANYVQVNNEQSSGMVMDEDTRKEFEDFWEHYKSDPFAGRNEILASLCPQVFGMYLVKLAVAMVLAGGIQRTDAAGTRVRGESHLLLVGDPGTGKSQFLKYAAKITPRSVLTTGIGSTSAGLTVTAVKDSGEWNLEAGALVLADAGLCCIDEFNSLKEHDRTSIHEAMEQQTISVAKAGLVCKLNTRTTILAATNPKGQYDPKESVSVNIALGSPLLSRFDLVLVLLDTRNEDWDRIISSFILENKGYPSKSENLWSMEKMKTYFCLIRNLHPTLSEVSNQVLLRYYQMQRQSDSRNAARTTIRLLESLIRLAEAHARLMFRSAVTLEDAVTAVSVMESSMQGGALLGGVNALHTSFPENPRAQYQRQCELILEKLELQGLLQEELRRLERLQNESVHQCQSHSLEEEVAPGSCRNDPRDKPRLRTSTQQEQSCSWSSTERSGADSPPGPGLNRPTSCNNSAENRDGRGDGLDWLDPTSSPEIAPESTIVSPNVKTTEKNVNLKISNNKSQGKEKHGPQQRSKLLEAGHLPSSGAMNAPLRSHGVKRTKASQAVVVSEAGRGDEEDSVPRRLPKLLKEGSQNVCRSTTRVRPLPPTVPLSLSIPSPGSGKRSGTPKRKRRKSAQVEEPEPEGMETPTVKLAKFTFKQKTKLTHSPEGQGPIPPSASEIAVDSSKIPQQRTRREAAVPVVAPGKSTSTSGDRCSDQLHGKTKELSRQPPDSNPPREEREQGPKRRVIQPKPELGNQAGHSHLACEKDRKEGVSCGNKSSKVHAGTIARLASFSFTSPSESKSESLPPERKDSRDSRDSRDSRDRCHSPPATTAPVLGQQRQTFQLQQPTERANLSTLSLFTLSELDDEALDFDWEEEMRKKP
notes: Endogenous protein in mouse testes extracts and MEF cell extracts
As for B1, the binding result with MCM2 and with MCM5 was “no binding” throughout.
